In all, about 31,000 sequences went through this assay and about 1,400 (4.5%) were called active.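 How the source made its calls: active means median seed-adjusted z-score above 1 or below -1; inactive means the rest.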 The list shows a part of the results.

The assay can be described thus: Novel Modifiers of Survival Motor Neuron (SMN) Protein: Gene Identification via Genome-wide siRNA Screen.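 Further: luminescence tracks full-length SMN protein made from the SMN2 reporter.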 Conditions: HEK293T SMN2-luciferase reporter, siRNA knockdown, 72 h; actives lie on both sides. The method in brief: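 Each of three siRNAs per gene is reverse-transfected (1 pmol) into reporter HEK293T cells whose luciferase output tracks SMN protein level. After 72 h culture, ONE-Glo luminescence is control-normalized, log10-transformed and MAD-standardized; Common Seed Analysis deprioritizes seed-driven hits.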
For orientation: A reporter such as luciferase makes a cellular process visible.
With GGAAUUGGACUGAUCCUUUTT against GYS2, the median seed-adjusted z-score was inactive: 0.0101.
Next, GCUUUUAUGAAGUCUUUAATT against SLC25A3: inactive: -0.495; CGCCCGCGAUUACUACCAUTT against HSPA12B: inactive: -0.141; GCAUGAUCCUGUCAGUAAATT against RPA1: inactive: -0.27.
Next, CGUCAACGAUCGGAAGAAATT against TTLL9: inactive: 0.0534.
As for AGAAGUACUCGGACAAGGATT against BAIAP2, the figure is inactive: -0.0497.
Consider CUAAUGAGUUUGUCUAAUATT against PKDREJ, for which the median seed-adjusted z-score is inactive: 0.376.
For GGACGAAUCUUCUUUAAGATT against IMMP1L, the median seed-adjusted z-score is inactive: -0.444.
As for AGAUUGUUCUCCUCUGAAATT against ABCG8, the figure is inactive: -0.0233.
As for CAACACCGCCCACAACAAATT against TRIM25, the figure is inactive: 0.859; as for CUUUUGAACAGAUCGAUGATT against EXO1, inactive: 0.547.
With CGUCAAUUCCGGUACACUUTT against PIGM, the median seed-adjusted z-score was active: 1.36.
Next, GAAGAAUUCAAGACGGAGATT against GPR27: inactive: -0.678.
As for GAAGGUGUUUUCGUAAAUATT against CYBRD1, the median seed-adjusted z-score is inactive: 0.623.
Consider GGGUUUAACUGGGAACUCUTT against GALNT8, for which the median seed-adjusted z-score was inactive: -0.283.
As for CACCCGUUGUCUCACCAUUTT against DCHS1, the median seed-adjusted z-score is inactive: 0.565.
Next, GAAGAAACCUUGACAAAAATT against KHDRBS3: inactive: 0.0681; AGUUCACCCAGUACGACAATT against IL4I1: inactive: -0.441; GGAGGAGAGUUACCUACAATT against PILRB: inactive: 0.0351.
With CAACAGCACCACACGAAAATT against GGT1, the median seed-adjusted z-score was inactive: -0.0421.
On to CCGAUGUCAUUGACCUGUUTT against RIPK4, for which the median seed-adjusted z-score is inactive: 0.188.
Next, CAAUCUCCGCAAAAAUGGATT against PCMT1: inactive: 0.139.
As for AAAUGUGGAUUAUUCCUUUTT against KIRREL, the figure is inactive: -0.74; as for GAAUUUACCUACCACAAAATT against RASA3, inactive: 0.0056; as for GGUCCUUUUUCUCCGCCUATT against BCL2L10, inactive: 0.361.
As to CCCUGGUAUUGUCCGAAUUTT against USP15, the median seed-adjusted z-score was inactive: -0.405.
On to CUAUCACGACGAAAACGGATT against ZMYND8, for which the median seed-adjusted z-score is inactive: -0.065.
Next, AGACCUUCGAUGUCAACGATT against SOX9: inactive: 0.775.
Next, GAGUCUGUGGUGUACCUAATT against SALL4: inactive: -0.344; GAUCGUUUGAGAGAACAAATT against L3MBTL4: inactive: -0.189; CCAGCAAUCCUGACUUGUUTT against TGFBR2: inactive: 0.8.
Next, CCACGUGUUUCAAAGCAGATT against GPR172B: inactive: 0.184; AGAGCAGUAUUGCAGUCAATT against APBB3: inactive: -0.299; CGUCGACCAUUCCCAUGAATT against BRUNOL4: inactive: 0.
Take CCAGCAACAGUAUCGGGAATT against SLC7A4: the median seed-adjusted z-score is inactive: -0.102.
Next, CAAGCAAGGGUGUGAGUUUTT against CXCR4: inactive: -0.347; GGCUUUUGAUAUUAUGAGATT against SMYD3: inactive: 0.1.
Next, CACGCAACUUGGAUCCGGATT against SLC39A5: inactive: -0.311; GAGUUAUCUUAGUCGGGAATT against MAP4K5: inactive: -0.309; ACAUAGAUGCUAUCUUUAATT against EIF4H: inactive: 0.0349.
Next, CAGUUUCAACUUUAUCAGATT against RNF144B: inactive: 0.642; GAACAAGUACGAGGAUGAATT against KRT79: inactive: 0.338; GCUCAAUACAGUGCACAAUTT against HIPK1: inactive: 0.69.
Regarding GCAUGACUUUGUUCGACGATT against TAOK3, the median seed-adjusted z-score was inactive: -0.594.
Next, CUAUGAAAUCGAAAUUGUATT against ZFYVE21: inactive: -0.186.
In the case of GGAUACGGGACAAUGAGAATT against KCTD2, the median seed-adjusted z-score was inactive: 0.133.
As for GGAAUAUAAAGAUCGGGAUTT against MTMR14, the figure is inactive: 0.131.
Next, GGGUGAUCGAGGACCCAAATT against COL8A1: inactive: -0.848; GCACCUACAGUGUCUCAUUTT against GPX7: inactive: -0.971; CAUCCAUUGUGCACCGCUATT against EFEMP2: inactive: -0.143.
Next, CCGGAACUUUGACACGCUATT against ARVCF: inactive: 0.372.
For GGACUUCACCAAGCAGAAATT against MCM5, the median seed-adjusted z-score was inactive: 0.126.
As for GGACAAUGAGUUGAGUAAUTT against TRMT2A, the figure is inactive: -0.588.
For AGAUCGACCAGAACGUGGATT against APOA4, the median seed-adjusted z-score was inactive: 0.195.
As for GAUAUAUCGUUGUCAAGCATT against NCAM2, the figure is inactive: 0.192.
Next, GGACGGAUCUCAAUCGAAATT against CPO: inactive: 0.0875.
For the sequence CGACACUUGAUAUGCUAAATT against FOXJ3, the median seed-adjusted z-score was inactive: -0.155.
As for GCGAGUGUCUUGAAGUAUATT against PLAA, the figure is inactive: -0.192; as for GCCUAUUCAUCGGAAGGUATT against SENP2, inactive: 0.
Turning to CGGUCCACGCAAUUCUUUATT against FIZ1, the median seed-adjusted z-score is inactive: 0.154.
GCCGGGUCUUUUCGACAUUTT against PAQR9: the median seed-adjusted z-score is inactive: 0.116.
Next, GUAUGAGGCUUUCAAGGAUTT against XPR1: inactive: -0.024; AGAACCAGGCAGUAAAGAATT against SLC22A12: inactive: -0.148; GAUUGACCUCAGUCAUAUATT against PAN3: inactive: 0.349.
For the sequence CAAUGACCAGUACGAGAAATT against 9-Sep, the median seed-adjusted z-score is inactive: -0.0175.
Next, CGAUAUGUUCAUUAGAAUUTT against HSPA1B: inactive: 0.302; GGUGGUGAAUCGUUAUCCATT against MARK1: inactive: 0.341; GCAGUUGGUUUUGCGAUUATT against ITGB1: inactive: 0.

For the origin of these results see PubChem BioAssay AID1347426 (Functional Genomics Laboratory (NCATS/FGL), 2020).
